Consider five substances from publication doi:10.1101/2021.01.13.426390.

Amino acid sequences for entries named in this document (tags omitted). A change or cut given only in a name is not applied to a line headed by its entry. Chains listed by the source or under a name are the forms on record and can include a tag or linker. Residues count along the entry.
AGR2 (human (endogenous in T47D, BT474, MDA-MB-468)) (O95994, residues 21-175): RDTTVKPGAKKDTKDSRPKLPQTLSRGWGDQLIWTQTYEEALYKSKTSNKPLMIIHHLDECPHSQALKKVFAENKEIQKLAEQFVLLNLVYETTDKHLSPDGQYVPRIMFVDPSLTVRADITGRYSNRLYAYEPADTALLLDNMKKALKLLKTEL
C81S AGR2 active site mutant, enforced expression (O95994, form named): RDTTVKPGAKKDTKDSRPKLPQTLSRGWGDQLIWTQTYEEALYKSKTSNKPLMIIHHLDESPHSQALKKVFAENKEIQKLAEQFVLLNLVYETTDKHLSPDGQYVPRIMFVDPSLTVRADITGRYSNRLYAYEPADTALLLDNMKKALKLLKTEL
UniProt O00220, residues 24-468: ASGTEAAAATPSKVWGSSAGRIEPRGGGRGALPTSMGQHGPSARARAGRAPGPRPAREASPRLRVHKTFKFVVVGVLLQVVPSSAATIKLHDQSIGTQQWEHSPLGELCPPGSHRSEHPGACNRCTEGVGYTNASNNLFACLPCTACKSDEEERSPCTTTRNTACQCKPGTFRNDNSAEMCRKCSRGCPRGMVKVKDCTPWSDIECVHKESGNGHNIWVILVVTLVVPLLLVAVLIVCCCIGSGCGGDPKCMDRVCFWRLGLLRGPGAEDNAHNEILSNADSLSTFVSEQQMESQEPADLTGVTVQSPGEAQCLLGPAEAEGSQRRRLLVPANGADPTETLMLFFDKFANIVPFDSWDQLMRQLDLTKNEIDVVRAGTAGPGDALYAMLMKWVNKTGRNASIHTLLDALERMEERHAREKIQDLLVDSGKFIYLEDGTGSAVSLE
UniProt Q9NZ08: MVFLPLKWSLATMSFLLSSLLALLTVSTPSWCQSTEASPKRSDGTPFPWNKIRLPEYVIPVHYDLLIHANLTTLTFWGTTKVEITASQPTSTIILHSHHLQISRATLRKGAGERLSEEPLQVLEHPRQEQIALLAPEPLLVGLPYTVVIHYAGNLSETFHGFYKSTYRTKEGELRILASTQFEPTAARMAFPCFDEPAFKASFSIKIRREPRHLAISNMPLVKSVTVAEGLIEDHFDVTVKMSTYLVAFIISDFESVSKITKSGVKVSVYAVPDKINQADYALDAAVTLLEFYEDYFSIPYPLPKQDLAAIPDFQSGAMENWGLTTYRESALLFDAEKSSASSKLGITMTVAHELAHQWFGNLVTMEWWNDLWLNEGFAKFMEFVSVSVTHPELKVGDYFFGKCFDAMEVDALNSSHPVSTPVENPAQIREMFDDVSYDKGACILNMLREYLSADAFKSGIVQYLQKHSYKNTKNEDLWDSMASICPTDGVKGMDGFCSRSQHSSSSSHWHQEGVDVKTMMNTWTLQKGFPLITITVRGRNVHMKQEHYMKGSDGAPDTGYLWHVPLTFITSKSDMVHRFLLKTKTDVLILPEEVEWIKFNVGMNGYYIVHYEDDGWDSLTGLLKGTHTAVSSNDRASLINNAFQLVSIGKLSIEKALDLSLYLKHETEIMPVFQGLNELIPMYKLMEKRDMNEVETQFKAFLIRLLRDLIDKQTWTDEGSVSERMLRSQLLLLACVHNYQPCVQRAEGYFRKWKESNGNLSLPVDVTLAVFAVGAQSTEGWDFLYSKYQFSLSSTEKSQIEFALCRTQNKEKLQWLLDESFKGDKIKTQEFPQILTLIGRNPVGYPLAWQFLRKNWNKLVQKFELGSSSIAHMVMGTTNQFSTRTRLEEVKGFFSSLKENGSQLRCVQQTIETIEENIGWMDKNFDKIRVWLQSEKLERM
UniProt P07237, residues 18-508: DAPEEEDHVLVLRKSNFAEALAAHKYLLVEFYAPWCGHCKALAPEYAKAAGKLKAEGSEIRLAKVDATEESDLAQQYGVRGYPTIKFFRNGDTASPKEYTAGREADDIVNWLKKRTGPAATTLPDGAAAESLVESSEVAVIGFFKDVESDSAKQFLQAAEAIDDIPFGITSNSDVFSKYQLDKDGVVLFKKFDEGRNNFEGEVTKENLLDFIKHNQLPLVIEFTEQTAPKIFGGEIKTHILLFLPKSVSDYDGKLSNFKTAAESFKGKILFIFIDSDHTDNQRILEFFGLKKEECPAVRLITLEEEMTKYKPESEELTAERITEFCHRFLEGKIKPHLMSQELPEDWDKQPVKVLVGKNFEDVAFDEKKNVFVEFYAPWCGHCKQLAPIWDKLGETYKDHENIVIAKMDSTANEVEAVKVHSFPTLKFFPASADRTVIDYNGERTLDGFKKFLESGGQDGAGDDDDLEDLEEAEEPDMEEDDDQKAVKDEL

Where a chain is given by its changes, count along the chain named. These are yes or no findings as the source states them, for the method shown. For part of these data: In cells and extracts the contact can be indirect. Some results given as binding are weak or reduced against the parent protein; the word gives no strength.

The target of experiment [1] is C81S AGR2 active site mutant, enforced expression (UniProt O95994). Briefly: non-reducing SDS-PAGE and immunoblot of disulfide-bonded complexes. On the technique in general: Immunoblotting shows a protein as a band on a membrane.
The target of experiment [2] is T1, ERp44 (human (endogenous in T47D, BT474, MDA-MB-468)) (UniProt Q9BS26).
T1 sequence: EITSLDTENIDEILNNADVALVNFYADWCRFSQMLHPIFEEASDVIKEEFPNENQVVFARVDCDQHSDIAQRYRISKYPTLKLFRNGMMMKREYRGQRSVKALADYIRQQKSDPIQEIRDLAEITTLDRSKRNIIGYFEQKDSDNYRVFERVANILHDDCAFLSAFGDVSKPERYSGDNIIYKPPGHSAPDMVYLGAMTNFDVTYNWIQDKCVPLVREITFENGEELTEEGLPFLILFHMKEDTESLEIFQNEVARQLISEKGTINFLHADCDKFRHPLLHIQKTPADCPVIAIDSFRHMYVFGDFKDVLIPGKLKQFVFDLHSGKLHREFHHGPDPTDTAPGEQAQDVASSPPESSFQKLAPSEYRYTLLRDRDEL
The experiment in a line: co-IP.

For experiment [3], the target named is T2, C58S ERp44 active site mutant (SXXS) (UniProt Q9BS26).
T2 sequence: T1 sequence with C29S
The experiment in a line: non-reducing SDS-PAGE and immunoblot of disulfide-bonded complexes.

Another experiment has as its target T3, S61C ERp44 mutant (CXXC) (UniProt Q9BS26).
T3 sequence: T1 sequence with S32C
The description is as above.

Experiment [4] has as its target T4, wild type ERp44 (CXXS), enforced expression (UniProt Q9BS26).
T4 sequence: T1 sequence
The description is as above.

Experiment [5] deals with AGR2 (human (endogenous in T47D, BT474, MDA-MB-468)) (UniProt O95994). Briefly: co-IP.
Experiment [6] deals with T4, wild type ERp44 (CXXS), enforced expression. Briefly: co-IP.

Take “C81S AGR2 active site mutant, enforced expression (from UniProt O95994 21-175)”: the binding result in experiment [1] is reported as “no binding”.
For “Death Receptor 4 (from UniProt O00220 24-468)”, the binding entry in experiment [2] is on record as “binds”.
For the substance “ER Aminopeptidase 1 (from UniProt Q9NZ08 1-941) (enzyme)”, the binding entry in experiment [3] was “no binding”; in the experiment with S61C ERp44 mutant (CXXC), “binds”; in experiment [4], “binds”.
Turning to PDIA1 (from UniProt P07237 18-508), the binding result in experiment [5], in experiment [2] and in experiment [6] was “binds” in each case.
Consider “doxycycline-inducible DR4 (from UniProt O00220 24-468) (receptor)”, for which, in experiment [2], the binding entry is “binds”.
